Laboratory results: PubChem BioAssay AID504771 (Drosophila RNAi Screening Center, 2011)

Purpose: 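Fly cell regulators of aggregate formation by polyglutamine huntingtin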 (follow-up of hits)
Cell system: Drosophila S2 cells with copper-inducible mutant huntingtin exon 1 (46 glutamines)-eGFP
Reagent: long dsRNA against Drosophila genes, 250 ng dsRNA per well
Timing: 3 days of knock-down, then 2 days of copper induction before fixing
Conditions: copper sulfate at 400 µM to switch on Htt-Q46-eGFP expression
Measured: 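Per-well count, size and brightness of GFP aggregates from automated images, set against plate mean and SD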
Call rule: 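Primary hit when aggregate count, size or brightness differed from plate mean by over 2 SD; called active only after clearing every validation step (off-target, repeat, second dsRNA, promoter counter-screen)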
Calls: active = confirmed modifier; inactive = primary candidate not confirmed
Only reagents picked out of a larger screen are listed. 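All genes were primary candidates; inactive means validation failed, not no effect; aggregate scores behind calls are not deposited.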 Names joined by + are all predicted targets of the reagent.

The first 5 entries, to show the layout:
predicted target	DRSC id	aggregation phenotype	Outcome
CG17026	DRSC10237	knock-down lowers aggregates	inactive
Hsf	DRSC07443	knock-down raises aggregates	active
snoRNA:Or-CD12 + RpL28	DRSC08293	knock-down lowers aggregates	inactive
sip1	DRSC22648	knock-down lowers aggregates	inactive
l(2)05287	DRSC02152	knock-down lowers aggregates	inactive

The listing, repeating the preview:
predicted target	DRSC id	aggregation phenotype	Outcome
CG17026	DRSC10237	knock-down lowers aggregates	inactive
Hsf	DRSC07443	knock-down raises aggregates	active
snoRNA:Or-CD12 + RpL28	DRSC08293	knock-down lowers aggregates	inactive
sip1	DRSC22648	knock-down lowers aggregates	inactive
l(2)05287	DRSC02152	knock-down lowers aggregates	inactive
SmB	DRSC03437	knock-down lowers aggregates	inactive
Taf6	DRSC11299	knock-down raises aggregates	inactive
Prosalpha6	DRSC03401	knock-down lowers aggregates	inactive
RpL11	DRSC07537	knock-down lowers aggregates	inactive
ND-B14	DRSC07029	knock-down lowers aggregates	inactive
MED14	DRSC08235	knock-down lowers aggregates	inactive
ocm	DRSC04360	knock-down raises aggregates	active
Ald1	DRSC14109	knock-down lowers aggregates	active
alphaSnap	DRSC11285	knock-down lowers aggregates	inactive
MED28	DRSC15721	knock-down lowers aggregates	inactive
eIF3b	DRSC06900	knock-down lowers aggregates	active
RpL22	DRSC18707	knock-down lowers aggregates	inactive
RpL22	DRSC22819	knock-down lowers aggregates	inactive
Taf10b	DRSC00792	knock-down raises aggregates	inactive
eIF3e	DRSC11199	knock-down lowers aggregates	inactive
Sod1	DRSC11286	knock-down raises aggregates	inactive
Non1	DRSC05954	knock-down lowers aggregates	inactive
gw	DRSC17135	knock-down lowers aggregates	inactive
alphaTub85E	DRSC16899	knock-down lowers aggregates	inactive
Prp38	DRSC07060	knock-down lowers aggregates	inactive
mus201 + Chrac-14	DRSC03568	knock-down may raise aggregates	active
eEF2	DRSC03737	knock-down lowers aggregates	inactive
RpS12	DRSC11270	knock-down lowers aggregates	inactive
nub	DRSC02499	knock-down raises aggregates	inactive
IntS9	DRSC10493	knock-down raises aggregates	active
RpS30	DRSC15119	knock-down lowers aggregates	inactive
RpL26	DRSC10726	knock-down lowers aggregates	inactive
CG32104	DRSC10127	knock-down lowers aggregates	inactive
mRpS9	DRSC15456	knock-down lowers aggregates	inactive
CSN4	DRSC07350	knock-down raises aggregates	inactive
Tao	DRSC19573	knock-down may raise aggregates	active
lilli	DRSC00708	knock-down lowers aggregates	active
SkpA	DRSC18833	knock-down raises aggregates	active
Rrp4	DRSC04434	knock-down lowers aggregates	inactive
Brr2	DRSC10559	knock-down lowers aggregates	inactive
vtd	DRSC20839	knock-down lowers aggregates	inactive
CG32365	DRSC10977	knock-down lowers aggregates	inactive
cv-c	DRSC23199	knock-down raises aggregates	inactive
mge	DRSC08721	knock-down raises aggregates	active
RpL9	DRSC03418	knock-down lowers aggregates	inactive
alphaTub84D	DRSC12623	knock-down lowers aggregates	inactive
RpL36A	DRSC03055	knock-down lowers aggregates	inactive
Polr1D + DCTN6-p27	DRSC02094	knock-down lowers aggregates	inactive
CG9300	DRSC11064	knock-down lowers aggregates	active
SmD2	DRSC12536	knock-down lowers aggregates	inactive
tho2	DRSC00646	knock-down lowers aggregates	inactive
thr	DRSC07706	knock-down lowers aggregates	inactive
tral	DRSC09779	knock-down raises aggregates	inactive
CG5274	DRSC11774	knock-down raises aggregates	active
mRpS33	DRSC14239	knock-down lowers aggregates	inactive
Spn77Bb + Spn77Bc	DRSC10689	knock-down raises aggregates	inactive
lncRNA:sphinx + ATPsynF	DRSC17191	knock-down lowers aggregates	inactive
CG6610	DRSC10674	knock-down lowers aggregates	inactive
ND-MNLL	DRSC18159	knock-down raises aggregates	inactive
Prosbeta6	DRSC11256	knock-down lowers aggregates	inactive
Nup107	DRSC01999	knock-down lowers aggregates	active
Obp57e	DRSC05891	knock-down raises aggregates	inactive
Mal-B1	DRSC02416	knock-down lowers aggregates	inactive
Polr2L	DRSC14630	knock-down lowers aggregates	inactive
swm	DRSC21831	knock-down lowers aggregates	inactive
Srp54	DRSC03442	knock-down lowers aggregates	inactive
Sec23	DRSC12387	knock-down lowers aggregates	active
CG14210 + Pstk + Tim9b	DRSC19566	knock-down lowers aggregates	inactive
MED17	DRSC16889	knock-down lowers aggregates	inactive
CG11566 (retired record) + stg1	DRSC20483	knock-down raises aggregates	inactive
MED31	DRSC12142	knock-down lowers aggregates	inactive
RpL10Ab	DRSC10798	knock-down lowers aggregates	inactive
RpL23	DRSC04648	knock-down lowers aggregates	inactive
CkIIbeta	DRSC20230	knock-down lowers aggregates	active
Uba2	DRSC11311	knock-down lowers aggregates	active
